We go through 41 molecules from PubChem BioAssay AID2810 (NMMLSC, 2010).

The other results are listed elsewhere or left out. Further columns of the screen follow, without active or inactive calls.

This test in a line: modulators of CD8 T cell-vesicle binding, confirmation, cherry-picked primary hits, two concentrations (AID 2810).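 As to all read-outs here: lower values mean blocking of vesicle binding.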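 As to percent response (vesicle binding): ratio of mean FL2 vesicle stain of CD8+ cells to that row's control.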 The settings on record: 2C CD8+ T cell-vesicle binding, flow cytometry; for double positive events: CD8+/vesicle+ events. For orientation: Flow cytometry measures light scatter and fluorescence of single cells or particles in a stream.
The mark [1] stands for this setting: at 15.4 µM, stronger effect = lower value.

For the setting “at 7.7 µM”, `COc1ccccc1N1CCN(/N=C\c2sccc2C)CC1` displayed a double positive events of 17.9% and a percent response (vesicle binding) of 213%. Also, the double positive events under setting [1] was found to be 14.6%.
For `Cc1ccc(C(=O)OC(C(=O)Nc2ccc(Cl)cc2C(F)(F)F)c2ccccc2)cc1` (configuration not stated) the same measures were 35%, 418% and 9.3%.
Regarding `O=C(NNC(=O)c1ccccc1[N+](=O)[O-])c1ccco1`, for the setting “at 7.7 µM”, the double positive events is 29.4% and the percent response (vesicle binding) amounted to 235%. Besides, the double positive events under setting [1] came to 17.4%.
For `O=C(CN1C(=O)NC2(CCCCCC2)C1=O)N1CCN(c2ccc(F)cc2)CC1` the same measures were 16.5%, 232% and 16.9%.
For `Cc1ccc(C(=O)NC(=S)Nn2cnnc2)cc1` the same measures were 18.9%, 472% and 29.3%.
The corresponding values for `Cn1nccc1C(=O)Nc1ccn(C23CC4CC(CC(C4)C2)C3)n1` are 33.3%, 297% and 14.4%.
For the setting “at 7.7 µM”, `COc1ccc([N+](=O)[O-])cc1NC(=O)CCC(=O)c1cccs1` showed a double positive events of 21.7% and a percent response (vesicle binding) of 238%. The double positive events under setting [1] was found to be 29.1%.
Under “at 7.7 µM”, `CCOc1cc(NC(=S)Nc2ccc(Cl)cc2)c(OCC)cc1NC(C)=O` registered a double positive events of 14.6% and a percent response (vesicle binding) of 150%. Also, under setting [1], the double positive events was determined as 21.4%.
For `O=C(COC(=O)CNC(=O)C1CCCCC1)Nc1ccccc1` the same measures were 7.5%, 307% and 12.7%.
For `CCN(CC)c1ccc(NC(=O)C2=CC=CN3CCS(=O)(=O)N=C23)cc1` the same measures were 11.7%, 108% and 13.1%.
Where the note is “at 7.7 µM”, `NC(=O)Nc1ccccc1C(=O)NCCc1ccccc1` returned a double positive events of 40.9% and a percent response (vesicle binding) of 358%. Under setting [1], this molecule yielded a double positive events of 34.1%.
On to `CCCCCOC(=O)Nc1ccc(S(=O)(=O)Nn2cnnc2)cc1`, for which the double positive events is 36.5% (at 7.7 µM) and 17.4% under setting [1]. Also, the percent response (vesicle binding) (at 7.7 µM) was found to be 315%.
Regarding `Cc1ccc(O)c([C@H](CCN(C(C)C)C(C)C)c2ccccc2)c1`, the double positive events (at 7.7 µM) is 14.3% and the double positive events under setting [1] amounted to 9.3%. This molecule also showed a percent response (vesicle binding) (at 7.7 µM) of 247%.
For `C=CCC1(CC=C)CCCN1C(=O)C1CCC(=O)N(CCc2ccccc2)C1` (configuration not stated) the same measures were 10.4%, 23.6% and 200%.
With `COc1ccc(OCC(=O)NNC(=O)C(=O)N2CCCC2)cc1`, the double positive events came to 24.8% (at 7.7 µM) and 9.2% under setting [1]. The same molecule returned a percent response (vesicle binding) (at 7.7 µM) of 499%.
The corresponding values for `O=C(Nc1ccccc1Cl)Oc1ccc(Cl)cc1Cl` are 23.6%, 11.4% and 337%.
In the case of `CCOC(=O)N1CCN(C(=O)c2ccc(CS(=O)Cc3ccc(C)cc3)o2)CC1` (configuration not stated), where the note is “at 7.7 µM”, the double positive events was found to be 10.3% and the percent response (vesicle binding) came to 156%. For the same molecule, under setting [1], the double positive events came to 8.1%.
Regarding `CC(=O)N1CCC(=NNC(=O)c2cccs2)CC1`, under “at 7.7 µM”, the double positive events was found to be 14.7% and the percent response (vesicle binding) came out at 107%. The double positive events under setting [1] came to 32.8%.
For `CNC(=S)Nc1cccc(C(=O)OC)c1` the same measures were 31.2%, 453% and 12.8%.
The corresponding values for `CN(C)S(=O)(=O)N1CCN(S(=O)(=O)N(C)C)CC1` are 22.4%, 311% and 30.2%.
The corresponding values for `Cc1ccc(CNC(=O)C(=O)NCC2OCCN2C(=O)c2cccs2)cc1` (configuration not stated) are 12.2%, 444% and 11.1%.
`COc1ccccc1CCNC(=O)C(=O)Nc1cc2c3c(c1)C(C)C(=O)N3CCC2` (configuration not stated) came in with a double positive events (at 7.7 µM) of 10.6% and a double positive events under setting [1] of 15.6%. Where the note is “at 7.7 µM”, this molecule came in with a percent response (vesicle binding) of 152%.
In the case of `CCOC(=O)NC(=S)Nc1ccc(C(C)(C)C)cc1`, the double positive events worked out at 10.8% (at 7.7 µM) and 9% under setting [1]. For the setting “at 7.7 µM”, this molecule showed a percent response (vesicle binding) of 388%.
`CCCCNc1c(-c2ccc(OC)c(SC3CCCCC3)c2)nc2ccc(C)cn12`: the double positive events (at 7.7 µM) came to 44.4% and the double positive events under setting [1] was 15.9%.
Under “at 7.7 µM”, `CC(C)(C)OC(=O)NCc1ccc(CNC(=O)c2nc[nH]c2C(=O)NCc2ccccc2)cc1` came in with a double positive events of 14.4% and a percent response (vesicle binding) of 401%. The molecule further yielded a double positive events under setting [1] of 6.2%.
The corresponding values for `COc1ccccc1NC(=O)COC(=O)c1cc(C)nc2ccccc12` are 20.3%, 123% and 17.6%.
For the molecule `CCC1CCCCN1CCCNC(=O)CS(=O)Cc1nc(-c2ccc(OC)c(OC)c2)oc1C` (configuration not stated), under “at 7.7 µM”, the double positive events was 8.2% and the percent response (vesicle binding) stood at 446%. Moreover, the double positive events under setting [1] was 17.1%.
For `O=C(NN1CCOCC1)c1cccc2ccccc12` the same measures were 16.2%, 95.8% and 33.9%.
In the case of `S=C(NCCc1ccc(Cl)cc1)NC1CCCCC1`, for the setting “at 7.7 µM”, the double positive events is 13.8% and the percent response (vesicle binding) turned out to be 537%. This molecule yielded a double positive events under setting [1] of 34%.
Where the note is “at 7.7 µM”, `COC(=O)c1ccc(COc2ccc(-c3nnn(CC(N)=O)n3)cc2)cc1` returned a double positive events of 31% and a percent response (vesicle binding) of 258%. The same molecule had a double positive events under setting [1] of 25.4%.
As for `COc1ccc(NC(=O)C(OC(=O)c2ccc([N+](=O)[O-])o2)c2ccccc2)cc1Cl` (configuration not stated), where the note is “at 7.7 µM”, the double positive events is 9.1% and the percent response (vesicle binding) amounted to 116%. Also, the double positive events under setting [1] was 29.2%.
The corresponding values for `CCNS(=O)(=O)c1ccc(NC(=O)c2cc(C(F)(F)F)nn2C)cc1` are 19.9%, 259% and 24.9%.
For the molecule `Cc1cc(C)c2cc(C#N)c(SCC(=O)NCC3CCCO3)nc2c1` (configuration not stated), where the note is “at 7.7 µM”, the double positive events amounted to 20.9% and the percent response (vesicle binding) was found to be 911%. For the same molecule, under setting [1], the double positive events turned out to be 23.3%.
The corresponding values for `CNC(=O)Cc1nc2ccccc2n1CC(=O)Nc1cc(C)cc(C)c1` are 10%, 151% and 8%.
For `CC(C)(C)OC(=O)N1CCN(C(=O)c2nc[nH]c2C(=O)N2CCN(c3ccccc3)CC2)CC1` the same measures were 9.7%, 95% and 37.3%.
Take `N/C(Cc1ccc([N+](=O)[O-])cc1)=N\OC(=O)c1ccccc1Br`: where the note is “at 7.7 µM”, the double positive events amounted to 11% and the percent response (vesicle binding) stood at 453%. Under setting [1], this molecule yielded a double positive events of 20.3%.
As to `O=C(Nc1ccccc1F)C1CCCN(S(=O)(=O)c2cccc3cccnc23)C1` (configuration not stated), where the note is “at 7.7 µM”, the double positive events amounted to 12% and the percent response (vesicle binding) is 550%. Besides, the double positive events under setting [1] is 4.2%.
With `COC(=O)CN(c1ccc(C)cc1)S(=O)(=O)c1c(C)[nH]c(=O)[nH]c1=O`, where the note is “at 7.7 µM”, the double positive events came out at 17.3% and the percent response (vesicle binding) worked out at 207%. The double positive events under setting [1] was 14.4%.
For the setting “at 7.7 µM”, `COc1ccc2cc3c(N)nn(C(=O)c4ccccc4[N+](=O)[O-])c3nc2c1` registered a double positive events of 25.1% and a percent response (vesicle binding) of 292%. The double positive events under setting [1] was 12%.
For the setting “at 7.7 µM”, `N#C/C(=C\c1cccnc1)C(=O)Nc1cccc(Cl)c1` came in with a double positive events of 7.8% and a percent response (vesicle binding) of 288%. Moreover, the double positive events under setting [1] stood at 22.3%.
For `CC(C)COC(=O)n1c(=O)oc2cc(S(=O)(=O)N3CCCCC3)ccc21` the same measures were 14.5%, 372% and 16.5%.
